Screen size: about 53,000 sequences; about 3,700 (7%) were called active.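 The calls were made as follows: active = gene knockdowns whose robust z-score for IL-1 alpha signal is at least 2 or at most -2, so actives lie on both sides; inactive = the rest.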 The list shows a part of the results.
Assay: Components of the Cytosolic LPS Sensing Pathway: Gene Identification via Genome-wide siRNA Screen;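 also: robust z of the log signal after scaling to non-targeting control siRNA wells of the plate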
Details: RAW264.7 macrophages, IL-1a HTRF, actives lie on both sides, screened at 100 nM (by protocol), cells primed 5 h with Pam3CSK4 first
How it was run: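 Read-out: IL-1a HTRF on supernatant, divided by plate negative-control median ×100, log-transformed and converted to robust z-score. Cells were RAW264.7 given 100 nM siRNA, Pam3CSK4-primed 5 hours, then LipidA-transfected 24 hour.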

Sequence | z-score
GGAUCAUAAAGUCAAAGCUTT against Vmn1r185 | inactive: -0.302
CCAUCCUUGUUUUGUUAAUTT against Fas | inactive: 0.389
CGCGAGUUUUUCUUUAAUGTT against Hoxd11 | inactive: 0.952
GCAGAGGCUCGUCCAUAUATT against Dnpep | inactive: -0.205
GGGAACCUUACUGUGUUAUTT against Gpr85 | inactive: 0.477
GGACGUGUGGCUGUUGACATT against Sdc1 | inactive: -0.138
GGAAUCUCGGAGGAAAACUTT against Hyou1 | inactive: 1.99
GGCCUGCUAUCGUUCAGAATT against Mkln1 | inactive: -0.698
GGUAUUUGAUUUCACCUUUTT against Akr1a1 | inactive: 0.895
GGUCAACAUCACCUUCAAUTT against Scarb1 | inactive: -0.864
GGGCUUGGAGAGAAAACCATT against Snupn | inactive: -0.773
GGGUUGAAAUCACUAUUGATT against Map10 | inactive: 1.34
GCUCAUGGGUAUGAUCAAUTT against Sox5 | inactive: -0.996
CCUGCGUACGAAUUAAAGGTT against Pih1d2 | inactive: -0.108
GGAUACAUGUGGUGCCAAUTT against Banf1 | inactive: -0.529
GGCUUACCUGAACUUUCUGTT against Degs2 | inactive: -0.381
GGAUGCUCAUGCUAAGCAGTT against Krt7 | inactive: 0.547
CCUGAUAAUGAAUAACUCGTT against Stard3nl | inactive: 0.19
CCUCGGAUUGUUCAGACCUTT against Plxna4 | inactive: 0.141
CGAUGCAACUGGAAAACUCTT against Riok1 | inactive: -0.911
GGCAAAAUCGUGAAAAUUCTT against Vwf | inactive: -0.144
GGGCUUCACCAUUAUCAUUTT against Ercc2 | inactive: 0.583
CCCUCUCCAAUAUUCUUUATT against Olfr1116 | inactive: 0.943

19 successive entries already listed, for reference:
Sequence | z-score
GCAGAGGCUCGUCCAUAUATT against Dnpep | inactive: -0.205
GGGAACCUUACUGUGUUAUTT against Gpr85 | inactive: 0.477
GGACGUGUGGCUGUUGACATT against Sdc1 | inactive: -0.138
GGAAUCUCGGAGGAAAACUTT against Hyou1 | inactive: 1.99
GGCCUGCUAUCGUUCAGAATT against Mkln1 | inactive: -0.698
GGUAUUUGAUUUCACCUUUTT against Akr1a1 | inactive: 0.895
GGUCAACAUCACCUUCAAUTT against Scarb1 | inactive: -0.864
GGGCUUGGAGAGAAAACCATT against Snupn | inactive: -0.773
GGGUUGAAAUCACUAUUGATT against Map10 | inactive: 1.34
GCUCAUGGGUAUGAUCAAUTT against Sox5 | inactive: -0.996
CCUGCGUACGAAUUAAAGGTT against Pih1d2 | inactive: -0.108
GGAUACAUGUGGUGCCAAUTT against Banf1 | inactive: -0.529
GGCUUACCUGAACUUUCUGTT against Degs2 | inactive: -0.381
GGAUGCUCAUGCUAAGCAGTT against Krt7 | inactive: 0.547
CCUGAUAAUGAAUAACUCGTT against Stard3nl | inactive: 0.19
CCUCGGAUUGUUCAGACCUTT against Plxna4 | inactive: 0.141
CGAUGCAACUGGAAAACUCTT against Riok1 | inactive: -0.911
GGCAAAAUCGUGAAAAUUCTT against Vwf | inactive: -0.144
GGGCUUCACCAUUAUCAUUTT against Ercc2 | inactive: 0.583

Next part:

Sequence | z-score
GCUGCACGGUGAGUUUAAATT against Gpm6b | inactive: 1.21
CGAGACUAACCUUUAGUUATT against Tmem71 | inactive: 1.19
GGAGAGAAAGAAUUUCAUCTT against Chordc1 | inactive: 0.185
CGUAUGAGUGCAAUACUAATT against Pcmtd1 | inactive: 1.32
GGCAAGUGCCCAAGUUUGUTT against Ifi35 | inactive: 1.08
GGCAAAUUCUACUACAAGATT against Pms2 | inactive: 0.117
GGAAGAUCAUAGCAAAAGGTT against Casp3 | inactive: -1.01
GGAGUUGGCCAUGUGGAAATT against Wdr45b | inactive: 0.945
GGAGAAGAGCAUAAAUACATT against 2410137M14Rik | inactive: 1.16
CCUAAUCUGGUAUACCAGATT against Slc7a1 | inactive: 0.593
CUCUAGUGUUACACUUAUUTT against Tefm | active: 2.83
GGGCAUAUGACUGAAACACTT against Vmn1r45 | inactive: -0.686
GCCAUCUUCGGUCAACUCUTT against Olfr969 | active: -2.87
GGUUCAACAAAACAAAGAGTT against Steap1 | inactive: -0.209
GGCGAGAAACCAUACCUGUTT against Glis1 | inactive: 0.24
GGUGUUUGAGUCAACAGACTT against Oard1 | active: -2.1
GGAUGUCAAUGAGUUUGCATT against Clstn2 | inactive: -0.16
GGUGUGACCAUCAAGCAUGTT against Nek8 | inactive: -0.386
GGACAAGAAAAAGGAUUAGTT against Clptm1 | inactive: -0.414
GGAAUAGAAGCUUUCACUGTT against A630023P12Rik | inactive: 0.895
GGCACAAGAACCAUUUCUGTT against Nfe2l3 | inactive: -1.84
CGAUGGAAGCACUUAUUUATT against Lep | inactive: 0.984
CCACUUACGAGGGCAUUUUTT against Atxn2l | inactive: -0.596

Sequence | z-score
CCGACAAAUAAAGGCUUUATT against Ddx52 | inactive: 0.486
GGAAGCAUCUGAUGUCAUUTT against Erp44 | inactive: 0.711
GGUUCAUUCGAUCUCAGACTT against Opalin | inactive: -0.505
GCAUGUCAGACAAUAAAGUTT against Mpped1 | inactive: 0.412
CCUUAUUGGGUCAUAAGCATT against Rasl10a | inactive: -0.825
GGAGUGUGCCCUGAAAGAUTT against Psrc1 | inactive: -0.215
GCCGAUAGCGGGAUUUAUUTT against Itsn1 | inactive: 0.681
GGUAACAUGGCAGAUUUUATT against Aif1l | inactive: 0.618
GGUGGUCCACGAAUUCAUUTT against Fermt2 | inactive: -1.41
GGUCAGGUUGAGGACAUAATT against Vwa1 | inactive: 1.28
CCUUUUUUCAUGUUAAUGGTT against Lmod1 | inactive: 1.3
GGUCGACAUUUUGAAGGAGTT against Fthl17e | active: -2.63
GGUCAUCUCCAGAUACCCATT against Arhgap45 | inactive: -0.604
GCCACCGUAUAUUUUUAAUTT against Castor2 | inactive: -0.466
GAGUGGGAUUAUGUUCAAUTT against Krtap19-3 | inactive: 0.664
GCCAUUGACUGUACAGGUUTT against Taar4 | inactive: 0.74
GGACUGAACCGUUUUAAAGTT against Fmo3 | inactive: -0.317
GAAGUCAUGGUUCCUACCATT against Clcn1 | inactive: 0.577
GGCAAGGUAUCCUCACUUGTT against Arpp19 | inactive: -0.0817
CCGAAAAAUGUCCAAAUCGTT against Vsx2 | inactive: 1.63
GGUGGUAUCACCUCUAUCATT against Cfap52 | active: -2.49
GGAAGCUGAUGAAUAUGUUTT against Acly | inactive: 0.719
